# Experimental data: PubChem BioAssay AID743454 (Peter MacCallum Cancer Centre, 2014)
# Assay: 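Knock-downs lowering viability or raising caspase 3/7 activity in vorinostat-treated resistant cells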 (primary screen)
# Cells: human HCT116-VR colon cancer cells, selected for vorinostat resistance
# Reagent: siRNA pool against human genes, 40 nM siRNA pool
# Duration: vorinostat for 24 h, read-out about 72 h after transfection
# Challenge: vorinostat at 2.5 µM final
# Measured: 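Cell viability by CellTiter-Fluor and caspase 3/7 activity by luminescence, each scaled to mock wells per plate, duplicates averaged, then robust z-scored over all plates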
# Reading the numbers: viability robust z-score: higher = more viable cells than screen typical; caspase robust z-score: higher = more caspase 3/7 activity than screen typical
# Rule for the call: 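a knock-down is a hit when classed RV1 or RV2 for lowered viability, or CA1 or CA2 for caspase activation; those lethal without drug were dropped; hits were retested singly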
# Shown is an unselected part of about 18,000 reagents tested. Of all reagents, 450 (2.5%) got an active call. 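Single biological run; no consistent viability z cut-off exists, so the class columns, not z-scores, define the calls.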 Unmarked entries are inactive. The numbers tell different reagents against one gene apart. No sequences are given here.
viability hit class,caspase hit class,viability robust z-score,caspase robust z-score,gene symbol,pool no.
no change,no change,-0.04,-0.16,CPT1B,1
no change,no change,-0.8,-0.24,CLSPN,1
no change,no change,-0.22,0.55,LMAN1L,1
no change,no change,0,-1.03,C8B,1
no change,no change,1.34,-0.58,SERTAD4,1
no change,no change,-0.33,-0.72,PFN2,1
no change,no change,0.67,2.37,TOR4A,1
no change,no change,-0.58,1.07,CLASP2,1
no change,no change,-0.82,4.23,NRL,1
no change,no change,0,0.05,KCNK10,1
no change,no change,0.64,1.8,HTN1,1
no change,no change,0.27,-0.48,LIPI,1
no change,no change,1.98,0.15,PGM3,1
no change,no change,-0.69,-0.48,GSE1,1
no change,no change,0.16,4.29,LMX1A,1
no change,no change,-0.34,0.71,SLC35C1,1
no change,no change,1.25,-0.96,BCL2A1,1
no change,no change,1.82,0.96,MAP3K21,1
no change,no change,0.4,0.26,SAAL1,1
no change,no change,0.48,-0.04,RNF208,1
no change,no change,-0.57,-0.98,ZNF572,1
no change,no change,-1.68,0.79,ZNHIT3,1
no change,no change,-0.12,-0.56,SHCBP1L,1
no change,no change,0.44,0.18,CT45A3,1
no change,no change,0.14,-0.26,CT45A3,2
no change,no change,1.55,-1,TRIM45,1
no change,no change,1.02,0.41,TAF8,1
no change,no change,-1.21,1.2,PIP4P2,1
no change,no change,-0.98,0.06,KCTD15,1
RV2 (reduced viability) (active),no change,-3.27,-1.18,STS,1
no change,no change,-2.08,1.11,PLPP1,1
no change,no change,0.21,-0.68,DUSP2,1
no change,no change,1.66,0.26,CD151,1
no change,no change,-0.18,-0.56,LINC01599,1
no change,no change,0.24,-0.03,CNTNAP2,1
no change,no change,-0.06,2.38,SHROOM4,1
no change,no change,-0.04,0.76,EVI2B,1
no change,no change,-0.66,1.34,ATP8B3,1
no change,no change,0.32,1.35,ARMC7,1
no change,no change,1.29,-0.44,IL1RAPL2,1
no change,no change,0.3,-0.16,CEP19,1
no change,no change,-0.05,-0.23,S100Z,1
no change,no change,-1.81,-0.78,GTPBP4,1
no change,no change,0.73,-0.3,CD69,1
no change,no change,0.01,-0.72,AFF2,1
no change,no change,0.84,-0.75,ERAL1,1
no change,no change,-1.2,-0.7,FIRRM,1
no change,no change,-1.08,-0.25,DEAF1,1
no change,no change,-0.08,-0.4,CEP170,1
no change,no change,-1.79,1.02,RRAD,1
no change,no change,-0.3,-0.1,OR10H2,1
no change,no change,0.71,-0.65,GCLC,1
no change,no change,-2.42,1.52,MBD2,1
no change,no change,-0.84,1.94,ADGRE2,1
no change,no change,-1.88,0.86,DCD,1
no change,no change,1.1,-0.06,PRDM5,1
no change,no change,0.64,-0.29,TRIB1,1
